# Primary screen of a compound library

The values are deposited in ChEMBL (CHEMBL3988442, “University of Dundee, Small-Polar-MMV Screening Library” (2021)).

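Viability assay of Plasmodium falciparum sporozoites; the read-out is not stated. The concentration is filed as 10 mM, unlikely as a test dose, so the dose is not known. Higher reads as lower viability (inferred: compounds with an IC50 in retests scored well above the rest). Strong results were mostly tested again. Size under these conditions: about 34,000 compounds, about 280 of them at 50% or above in at least one test.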

Values are the deposited “Percent Effect”, in %. The record does not define 0% and 100%; most values in the screen are far below 50% and negative numbers occur (in some assays of this library far below -100). Compounds were drawn at random from those tested, without regard to their results. Two or more numbers in one place are separate tests of the same structure; such repeats can differ widely.

Compound: COc1ccccc1N1CC(NC(=O)Cn2cc(C)nn2)CC1=O (stereo not given)
effect: -4.344%

Compound: [H][C@@]12NCCCC[C@]1([H])N(C(=O)c1cccc(OC)c1)C[C@H]2c1ccccc1
effect: -0.09349%

Compound: COCCCNC(=O)CN(C)C(=O)c1ccccc1O
effect: 0.2681%

Compound: Cc1nn(C)c2cn(C(C)C(=O)NCc3cccnc3)nc12 (stereo not given)
effect: -1.974%

Compound: CCn1c(N)nc2cc(C(=O)NCCc3nnc(C)s3)cnc21
effect: -8.165% & -11.66%

Compound: O=C1NCCCCC1Sc1ccc(F)c(F)c1 (stereo not given)
effect: -3.571%

Compound: CC(CNC(=O)Nc1cn[nH]c1)N1CCOCC1 (stereo not given)
effect: -11.33%

Compound: CC(C)N1CCc2[nH]nc(C(=O)N3CCCC3C)c2C1 (stereo not given)
effect: 3.251%

Compound: CO[C@H]1CCN(C(=O)c2ccc3[nH]nnc3c2)C[C@@]12CCCO2
effect: 2.542%

Compound: CCN(C)c1ncnc2c1CCN(S(=O)(=O)c1ccccc1)CC2.O=C(O)C(F)(F)F
effect: 6.414%

Compound: Cc1ccc(C(=O)NC2CCN(C(=O)Nc3ccncc3)CC2)o1
effect: 0.9184%

Compound: CC(C)n1cc(CN2CCCN(C(=O)C(C)n3cncn3)CC2)cn1 (stereo not given)
effect: 6.06%

Compound: Cc1occc1CNC(=O)NCCN(C)C1CCCC1
effect: -6.504%

Compound: CCc1n[nH]c(C2CN(C(=O)c3ccnc(C)n3)CCO2)n1 (stereo not given)
effect: -2.148%

Compound: CCCn1nccc1-c1nccnc1CC1CCN(C(C)=O)CC1
effect: 7.497%

Compound: Cc1ccc(C)c(CSc2nnc([C@@H](N)C(C)C)o2)c1.Cl
effect: -2.289%

Compound: Cc1ccc(CN2Cc3cnn(C)c3C(COCC3CC3)C2)o1 (stereo not given)
effect: 4.882%

Compound: CN1C(=O)C2(CC(=O)Nc3[nH]ncc32)c2ccc(F)cc21 (stereo not given)
effect: -4.814%

Compound: Cc1oc(-c2ccoc2)nc1CN1CCC[C@H]1CO
effect: -3.421%

Compound: [H][C@]12CC[C@]([H])(CN(S(C)(=O)=O)C1)N(Cc1cscn1)C2=O
effect: -12.07%

Compound: CCC(C)NC(=O)c1cc(S(=O)(=O)N(C)C)c(C)s1 (stereo not given)
effect: 6.024%

Compound: CC(C)Oc1ncc(C(=O)N2CCC(NC(=O)C3CC3)CC2)cc1Cl
effect: 1.216%

Compound: CCNC(=O)[C@@H]1C[C@H](N)CN1C(=O)CCc1ccc(C)c(C)c1
effect: -23.68% & -19.04%

Compound: Cn1ncc2ccc(C3CCCN(Cc4ccsc4)C3)nc21 (stereo not given)
effect: 7.057%

Compound: Cc1ccc(-c2nc(CN3CCc4cnc(C)nc4C3)no2)cc1
effect: 16.88%

Compound: CN1CCCN(C[C@@H]2CN(C(=O)CCC3CCCC3)C[C@@H]2CO)CC1
effect: -17.23%

Compound: CC(=O)NCCNC(=O)CN1CCOC(Cn2cc(C)cn2)C1 (stereo not given)
effect: 10.7%

Compound: c1ccc(-c2nc(CN3CCOC(Cn4cccn4)C3)co2)cc1 (stereo not given)
effect: -6.386%

Compound: Cc1cc(CC(C)NC2CCSCC2)[nH]n1 (stereo not given)
effect: -10.62%

Compound: CCN1CCC(CNCc2cc(OC)ccc2OC)C1 (stereo not given)
effect: 0%

Compound: O=C(c1ccoc1)N1CCC2(CCCN(c3ncc(F)cn3)C2)C1 (stereo not given)
effect: 17.42%

Compound: CC(C)Oc1cccc(C(=O)C2CCCN(C(=O)c3ccccn3)C2)c1 (stereo not given)
effect: -1.529%

Compound: [H][C@]12CC[C@]([H])(CN(C(=O)C3CCC3)C1)N(C(=O)c1ccc(OCC)cc1)C2
effect: -6.053%

Compound: Cl.O=C1CC2(CCCNC2)C(=O)N1Cc1cccc(F)c1 (stereo not given)
effect: -3.765%

Compound: CCN(CC)C(C(=O)NCc1ccc(N2CCCC2)nc1)C(C)C (stereo not given)
effect: 0.64%

Compound: C[C@]1(O)CN(Cc2ncccc2F)CC[C@@H]1Oc1cccc(F)c1
effect: -1.004%

Compound: Cn1c(=O)n(C)c2cc(C3SCC(=O)Nc4ccsc43)ccc21 (stereo not given)
effect: 3.07%

Compound: Cc1nn2c(-c3cnn(C)c3)nnc2s1
effect: -11.26%

Compound: Cc1cc(C)c2cc(CNCc3cccnc3)c3nn(C)c(=O)n3c2c1
effect: 9.793%

Compound: CCC(=O)NCCc1cc(N2CCN(C(C)=O)CC2)nc(C2CC2)n1
effect: -17.42%

Compound: CCCc1nnc(N2CCC3(CC2)CN(C)C(=O)O3)o1
effect: -14.48%

Compound: CC(C)n1ccc(CN2CCOC(CNc3cccnn3)C2)n1 (stereo not given)
effect: 10.77%

Compound: O=C(NCCc1csc(-c2cnccn2)n1)c1cnn[nH]1
effect: 10.93%

Compound: O=C(O)C(F)(F)F.O=C(O)C(F)(F)F.[H][C@@]12CN(Cc3ccc(F)cc3)C[C@]1([H])C(=O)N(CCN1CCCC1)C2
effect: 9.194%

Compound: O=C(O)C(F)(F)F.[H][C@@]12COC[C@]1(COCC(=O)N(C)C)CN(Cc1ccccc1)C2
effect: 2.719%

Compound: Cc1nc(C2CCN(C(=O)c3cccnc3)CC2)c2sccn12
effect: -10.55%

Compound: COCC(NC(=O)c1cc[nH]n1)c1cccc(C(F)(F)F)c1 (stereo not given)
effect: -5.077%

Compound: COCC(=O)N1CCC(c2cc3ncccc3c(O)n2)CC1
effect: -1.465%

Compound: COc1ccc(CN2CC[C@H](O)[C@@H]2Cc2cnn(C)c2)cc1.O=C(O)C(F)(F)F
effect: 9.88%

Compound: COc1ccc2c(c1)CN(Cc1nc3c(cnn3C)c(=O)[nH]1)CC2
effect: 1.069%

Compound: CN(C)CCN(Cc1ccc(Cl)cc1)C(=O)c1cc[nH]n1
effect: -28.67%

Compound: Cc1nc(O)cc(CN2CC=C(c3cnn(-c4ccccc4)c3)CC2)n1
effect: -61.3% & -57.68%

Compound: O=c1cc2c(nn1CN1CCN(c3ccccc3)CC1)CCC2
effect: -10.53%

Compound: O=C(CC1CC1)N1CCCC2(CCC(=O)N2CC2CC2)CC1 (stereo not given)
effect: -1.625%

Compound: Cc1noc(NC(=O)c2ccc(F)cc2)n1
effect: 5.296%

Compound: CCc1nc(C)ncc1C(=O)N1CCOC(c2nc(C)n[nH]2)C1 (stereo not given)
effect: 0.06729% & -12.09% & -10.54%

Compound: Cc1cc(C(=O)NCC2OCCc3cn(CC4CC4)nc32)c(C)[nH]1 (stereo not given)
effect: 1.455%

Compound: O=C(CCc1nc2cc(Br)cnc2[nH]1)NCCCn1ccnc1
effect: -2.997%

Some entries from above, unchanged:

CCN(C)c1ncnc2c1CCN(S(=O)(=O)c1ccccc1)CC2.O=C(O)C(F)(F)F gave 6.414%.
CC(C)Oc1cccc(C(=O)C2CCCN(C(=O)c3ccccn3)C2)c1 (stereo not given) gave -1.529%.
CCC(=O)NCCc1cc(N2CCN(C(C)=O)CC2)nc(C2CC2)n1 gave -17.42%.
Cc1cc(C(=O)NCC2OCCc3cn(CC4CC4)nc32)c(C)[nH]1 (stereo not given) gave 1.455%.